Measurements reported in the supplement of paper PMC9233669.
Variants at the background level are over-represented here.

Columns and labels:
biotinyl-Ile-oxazolone = assay: self-aminoacylation, catalytic enhancement (BIO) (fold over background); higher = more active; k-Seq, kA / k0A0; sequences stand for … in GGGAAUGGAUCCACAUCUACGAAUUC…UUCACUGCAGACUUGACGAAGCUG
Outline: (§1)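 Working in 50 μL HEPES/NaCl/KCl/MgCl2/CaCl2 buffer with 5% acetonitrile at pH 6.9–7.0, mutagenized RNA pools (0.43 μM; 21-nt variable region) were reacted with 2–1250 μM of each biotinyl-aminoacyl-oxazolone for 90 minutes at room temperature. Streptavidin capture followed, with quantification by triplicate qPCR and Illumina sequencing. Catalytic enhancement is reported as median kA over the uncatalyzed rate, the low-activity peak of a bimodal Gaussian fit to the data.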

biotinyl-Leu-oxazolone = assay: self-aminoacylation, catalytic enhancement (BLO) (fold over background); higher = more active; k-Seq, kA / k0A0; sequences stand for … in GGGAAUGGAUCCACAUCUACGAAUUC…UUCACUGCAGACUUGACGAAGCUG
Outline: as §1

biotinyl-Phe-oxazolone = assay: self-aminoacylation, catalytic enhancement (BFO) (fold over background); higher = more active; k-Seq, kA / k0A0; sequences stand for … in GGGAAUGGAUCCACAUCUACGAAUUC…UUCACUGCAGACUUGACGAAGCUG
Outline: as §1

biotinyl-Met-oxazolone = assay: self-aminoacylation, catalytic enhancement (BMO) (fold over background); higher = more active; k-Seq, kA / k0A0; sequences stand for … in GGGAAUGGAUCCACAUCUACGAAUUC…UUCACUGCAGACUUGACGAAGCUG
Outline: as §1

biotinyl-Val-oxazolone = assay: self-aminoacylation, catalytic enhancement (BVO) (fold over background); higher = more active; k-Seq, kA / k0A0; sequences stand for … in GGGAAUGGAUCCACAUCUACGAAUUC…UUCACUGCAGACUUGACGAAGCUG
Outline: as §1

biotinyl-Trp-oxazolone = assay: self-aminoacylation, catalytic enhancement (BWO) (fold over background); higher = more active; k-Seq, kA / k0A0; sequences stand for … in GGGAAUGGAUCCACAUCUACGAAUUC…UUCACUGCAGACUUGACGAAGCUG
Outline: as §1

Row | Sequence | self-aminoacylation (biotinyl-Ile-oxazolone) | self-aminoacylation (biotinyl-Leu-oxazolone) | self-aminoacylation (biotinyl-Phe-oxazolone) | self-aminoacylation (biotinyl-Met-oxazolone) | self-aminoacylation (biotinyl-Val-oxazolone) | self-aminoacylation (biotinyl-Trp-oxazolone)
1 | AUUACCCUGGUCAUCGACCGA [Fam2.1 aminoacylation ribozyme variant] | 1.42 | 1.89 | 1.14 | 1.08 | 1.49 | 1.36
2 | AUUACCCUGGUCAUCGAGCGG [Fam2.1 aminoacylation ribozyme variant] | 1.95 | 2.9 | 1.12 | 2.38 | 1.8 | 1.61
3 | AUUACCCUGGUCAUCGAGGGC [Fam2.1 aminoacylation ribozyme variant] | 1.31 | 1.56 | 1.09 | 1.77 | 1.24 | 1.12
4 | AUUACCCUGGUCAUCGAGGGU [Fam2.1 aminoacylation ribozyme variant] | 1.03 | 1.58 | 1.28 | 1.86 | 1.3 | 1.9
5 | AUUACCCUGGUCAUCGAUUCA [Fam2.1 aminoacylation ribozyme variant] | 0.92 | 0.884 | 0.588 | 0.689 | 1.1 | 1.57
6 | AUUACCCUGGUCAUCUAGCGA [Fam2.1 aminoacylation ribozyme variant] | 1.12 | 1.44 | 1.3 | 1.31 | 1.37 | 0.974
7 | AUUACCCUGGUCAUGAAGUGA [Fam2.1 aminoacylation ribozyme variant] | 4.14 | 7.74 | 44.8 | 8.83 | 4.08 | 10.1
8 | AUUACCCUGGUCAUUGAGAGA [Fam2.1 aminoacylation ribozyme variant] | 0.852 | 0.703 | 1.04 | 0.854 | 0.867 | 0.648
9 | AUUACCCUGGUCAUUGAUUGA [Fam2.1 aminoacylation ribozyme variant] | 0.926 | 0.723 | 0.689 | 0.758 | 0.925 | 0.442
10 | AUUACCCUGGUCCUCGAAUGA [Fam2.1 aminoacylation ribozyme variant] | 1.07 | 1.1 | 0.3 | 1.17 | 1.01 | 1.04
11 | AUUACCCUGGUCCUCGAGUUA [Fam2.1 aminoacylation ribozyme variant] | 0.881 | 1.12 | 0.602 | 0.807 | 1.3 | 0.539
12 | AUUACCCUGGUCGUCGAGAGA [Fam2.1 aminoacylation ribozyme variant] | 0.762 | 0.603 | 0.37 | 0.639 | 0.777 | 0.797
13 | AUUACCCUGGUCGUCGAGCGA [Fam2.1 aminoacylation ribozyme variant] | 1.22 | 2.17 | 3.35 | 1.56 | 1.58 | 1.4
14 | AUUACCCUGGUCGUCGAGUAA [Fam2.1 aminoacylation ribozyme variant] | 1.27 | 1.68 | 1.08 | 1.3 | 1.12 | 0.721
15 | AUUACCCUGGUCGUCGAUUGA [Fam2.1 aminoacylation ribozyme variant] | 0.748 | 0.584 | 0.38 | 0.704 | 0.662 | 0.382
16 | AUUACCCUGGUCUUCGAGAGA [Fam2.1 aminoacylation ribozyme variant] | 0.978 | 0.957 | 0.41 | 0.888 | 1.26 | 0.529
17 | AUUACCCUGGUCUUCGAGUGC [Fam2.1 aminoacylation ribozyme variant] | 1.08 | 1.37 | 0.594 | 0.984 | 1.28 | 1.25
18 | AUUACCCUGGUGAUGGAGUGA [Fam2.1 aminoacylation ribozyme variant] | 2.62 | 5.75 | 31.1 | 5.67 | 2.55 | 5.69
19 | AUUACCCUGGUUAUCGAGAGA [Fam2.1 aminoacylation ribozyme variant] | 0.837 | 0.609 | 0.969 | 0.49 | 1 | 0.57
20 | AUUACCCUGGUUAUCGAGUGC [Fam2.1 aminoacylation ribozyme variant] | 0.828 | 1.02 | 1.1 | 0.882 | 1.08 | 1.12
21 | AUUACCCUGGUUGUCGAGUGA [Fam2.1 aminoacylation ribozyme variant] | 1.38 | 1.85 | 1.97 | 1.91 | 1.33 | 3.23
22 | AUUACCCUGUUCAGCGAGUGA [Fam2.1 aminoacylation ribozyme variant] | 2.51 | 4.4 | 14.4 | 5.05 | 2.96 | 6.39
23 | AUUACCCUGUUCAUCGAGUUA [Fam2.1 aminoacylation ribozyme variant] | 1.19 | 1.12 | 0.909 | 1.13 | 1.12 | 0.616
